Measured values: PubChem BioAssay AID1671190 (National Center for Advancing Translational Sciences (NCATS), 2021)
Several values for one entry are separate records, joined by “and”; a condition that tells them apart may be missing. Equal entries are not always repeated. Out of some 580,000 compounds screened, about 6,100 (1.1%) were called active. Inconclusive means that the source gave no clear call. Such entries were picked first, then a sample of the others. The call rests on the fitted dose curve; in most records, active means well fitted inhibition curve with a large enough effect; inconclusive means small, poorly fitted or top-dose-only effect, or another doubt; inactive means no such curve, though single readings can be large or run the other way. Potencies beside an inconclusive call are fits to weak or partial responses and may not hold up.

By UniProt entry, the sequences of proteins in these tests, tags left out.
UniProt P18054, whole entry, looked up: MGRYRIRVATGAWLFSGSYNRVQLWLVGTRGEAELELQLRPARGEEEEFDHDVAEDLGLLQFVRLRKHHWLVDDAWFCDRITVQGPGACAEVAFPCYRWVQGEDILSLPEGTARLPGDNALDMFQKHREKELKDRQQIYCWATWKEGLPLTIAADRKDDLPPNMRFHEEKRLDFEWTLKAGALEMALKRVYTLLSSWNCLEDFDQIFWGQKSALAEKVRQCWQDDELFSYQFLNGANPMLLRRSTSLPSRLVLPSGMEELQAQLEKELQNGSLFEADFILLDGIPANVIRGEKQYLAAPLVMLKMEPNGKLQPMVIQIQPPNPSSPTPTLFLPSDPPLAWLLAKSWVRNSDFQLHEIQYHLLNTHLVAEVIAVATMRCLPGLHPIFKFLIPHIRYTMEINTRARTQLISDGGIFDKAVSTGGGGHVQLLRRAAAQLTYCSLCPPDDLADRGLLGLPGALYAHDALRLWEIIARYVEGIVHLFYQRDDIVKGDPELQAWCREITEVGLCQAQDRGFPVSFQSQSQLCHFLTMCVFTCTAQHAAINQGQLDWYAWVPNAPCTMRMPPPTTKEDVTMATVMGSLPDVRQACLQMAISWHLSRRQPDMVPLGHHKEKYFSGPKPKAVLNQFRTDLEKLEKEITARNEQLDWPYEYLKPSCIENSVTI

Each compound was assayed against Polyunsaturated fatty acid lipoxygenase ALOX12 (Homo sapiens) (UniProt P18054) (assay: Primary qHTS assay for inhibitors of human arachidonate 12S-lipoxygenase (ALOX12): Round 2). Settings: purified 12hLO, xylenol orange hydroperoxide absorbance; activity change, negative = inhibition: at 108 µM (top of the series) unless noted.
How it was run: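 Purified human 12hLO at 150 nM in 25 mM Hepes, 0.01% Triton X-100, pH 7.0, preincubated 15 min at room temperature with compound. Reaction started with 40 uM arachidonic acid, 30 min at room temperature. Hydroperoxide measured by Fe-xylenol orange, 573/405 nm absorbance ratio.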
On the % scale 0 is the no-effect control and ±100 the full control effect; potency means the concentration at half of the fitted maximal effect.

SMILES	Potency	activity change, negative = inhibition
CCCCCc1c(C)nc(N2CCOCC2)[nH]c1=O	inconclusive: 0.282 µM [inhibitor, full curve, poor fit]	–
CN1C(=O)CCS(=O)(=O)C1c1ccc(Cl)c(Cl)c1 (stereo not drawn)	inconclusive: 22.4 µM [inhibitor, full curve, poor fit]	–
S=C(NCCCc1ccccc1)Nc1ccccc1	inconclusive: 44.7 µM [inhibitor, partial curve]	–
O=C(C1CCN(S(=O)(=O)c2ccccc2)CC1)N1CCN(c2ccccc2F)CC1	–	inactive: 27.6%
O=C(O)CC(CC(=O)Nc1ccc(F)c(Cl)c1)c1ccc(Cl)cc1Cl (stereo not drawn)	inconclusive: 14.1 µM [inhibitor, full curve]	–
O=C(O)C(=O)/C(=C\c1cccc(Cl)c1)c1ccc2ccccc2n1	inconclusive: 35.5 µM [inhibitor, partial curve, poor fit]	–
O=C(CCc1ncc(-c2ccc(F)cc2)o1)NCCc1ccccc1	–	inactive: 0.326%
CNC(=O)c1cccc(-c2cnc3[nH]cc(CC(=O)Nc4cccc(F)c4)c3c2)c1	inconclusive: 63.1 µM [inhibitor, partial curve, poor fit]	–
C=CCNC(=O)COc1ccc(Oc2ccccc2)cc1	–	inactive: -20.8%
COc1ccc(-n2c(=O)c(CCc3ccccc3)nc3cnc(N4CCOCC4)nc32)cc1	inconclusive: 39.8 µM [inhibitor, partial curve, poor fit]	–
Cc1oc2cc(OCC(=O)N[C@H](C)C(=O)O)ccc2c(=O)c1-c1ccc(Cl)cc1	–	inactive: -18.1%
Cc1cccc(NC(=O)c2ccc3nccnc3c2)n1	inactive	–
CCN(CC)CCn1c(NCc2cccc(OC)c2)nc2ccccc21	inconclusive: 39.8 µM [inhibitor, partial curve, poor fit]	–
O=C(CC(C(=O)O)c1ccc(Cl)cc1)c1ccccc1 (stereo not drawn)	–	inactive: -1.03%
CCCC(c1nnnn1CCOC)N(Cc1cc2cc(C)c(C)cc2[nH]c1=O)CC1CCCO1 (stereo not drawn)	inconclusive: 2.82 µM [inhibitor, full curve, poor fit]	–
O=C(NC(=S)Nc1ncc(Br)cc1Br)c1ccccc1	inconclusive: 11.2 µM [inhibitor, partial curve, poor fit]	–
COc1ccc(CN2C(=O)CO[C@H]3CN(C4CCC4)C[C@H]32)cc1	inconclusive: 22.4 µM [inhibitor, full curve, poor fit]	–
O=C(Nc1cccc(C(F)(F)F)c1)/C(=C/c1ccco1)NC(=O)c1cccs1	inconclusive: 44.7 µM [inhibitor, partial curve, poor fit]	–
CCn1ccc(C(=O)N2[C@@H]3CC[C@H]2CC(NC(=O)c2ccncc2)C3)n1 (stereo partly drawn)	–	inactive: 63.1%
CN(CC(=O)Nc1cccc(F)c1)C(=O)c1cc2ccccc2cc1O	inconclusive: 5.62 µM [inhibitor, partial curve, poor fit]	–
COc1ccc(-c2ccc3c(n2)CN(Cc2csc(C)n2)C(=O)CO3)cc1F	inconclusive: 50.1 µM [inhibitor, full curve]	–
CCN(CC)CCOc1ccc(Cc2ccccc2)cc1	inactive and inconclusive: 35.5 µM [inhibitor, single point]	–

One compound at a time, from the list above. Order of values: Potency	activity change, negative = inhibition
O=C(NC(=S)Nc1ncc(Br)cc1Br)c1ccccc1 is listed with inconclusive: 11.2 µM [inhibitor, partial curve, poor fit]	–
O=C(CC(C(=O)O)c1ccc(Cl)cc1)c1ccccc1 (stereo not drawn) is listed with –	inactive: -1.03%

(more compounds)

SMILES	Potency	activity change, negative = inhibition
N#CC1=C(N)N(c2cccc(C(F)(F)F)c2)C2=C(C(=O)CCC2)C12C(=O)Nc1ccc(F)cc12 (stereo not drawn)	–	inactive: 31.3%
Cc1cc(C)cc(NC(=O)CSc2nc3[nH]ncc3c(=O)[nH]2)c1	inconclusive: 8.91 µM [inhibitor, full curve, poor fit]	–
CN(Cc1ccco1)c1cc(-c2cccc(C#N)c2)ncn1	inconclusive: 8.91 µM [inhibitor, full curve]	–
CCOC(=O)N1CCN(CC(O)COc2ccccc2[N+](=O)[O-])CC1 (stereo not drawn)	inconclusive: 50.1 µM [inhibitor, partial curve, poor fit]	–
O=C(OCc1cnc(Cl)s1)c1c(F)cccc1F	–	inactive: -3.8%
C/C(=N\NS(=O)(=O)c1ccc(C)cc1)c1ccc(Br)s1	inconclusive: 44.7 µM [inhibitor, partial curve, poor fit]	–
NC(=O)C1(N2CCCCC2)CCN(CC(=O)Nc2ccc(Oc3ccccc3)cc2)CC1	–	inactive: -27.5%
O=C(NC(=S)NCc1ccccc1)c1ccc2c(c1)OCO2	active: 15.8 µM	–
CCCC(=O)Nc1ccc(C(=O)N/N=C/c2ccc([N+](=O)[O-])o2)cc1	–	inactive: -13.8%
Cc1ccc(-c2ccc3nnc(CNC(=O)C4CCCCC4)n3n2)cc1C	–	inactive: 13.7%
Cn1cccc1-c1cc(C(=O)O)[nH]n1	inconclusive: 14.1 µM [inhibitor, partial curve, poor fit]	–
CCN(CC)S(=O)(=O)c1ccc(N2CCOCC2)c(NC(=S)NC(=O)c2ccco2)c1	inconclusive: 112 µM [inhibitor, single point]	–
Cc1c(CC(=O)O)c(=O)oc2c(C)c3occ(-c4ccc(F)cc4)c3cc12	inconclusive: 28.2 µM [inhibitor, single point]	–
Cc1cc(C)n2[nH]c(=O)c(N=Nc3ccc(S(N)(=O)=O)cc3)c2n1	inconclusive: 0.251 µM [inhibitor, full curve, poor fit]	–
Fc1ccc(-c2csc(Nc3ccccn3)n2)cc1	inconclusive: 50.1 µM [inhibitor, partial curve, poor fit]	–
CC(=O)NS(=O)(=O)c1ccc(NC(=O)C2c3ccccc3Oc3ccccc32)cc1	inconclusive: 56.2 µM [inhibitor, partial curve, poor fit]	–
CCc1nnc(NC(=O)CSc2nc3c(cc2C#N)CCC3)s1	–	inactive: 0% [at 57.4 µM]
N#Cc1nc(-c2ccc(COc3ccccc3)o2)oc1N1CCCCC1	–	inactive: 9.1%
Nc1nc2ccc(S(=O)(=O)N3CCCCC3)cc2s1	inconclusive: 25.1 µM [inhibitor, partial curve]	–
O=C1c2ccccc2OCC2(CCN([S+](=O)([O-])c3ccccc3)C2)N1[S+](=O)([O-])c1ccccc1 (stereo not drawn)	inconclusive: 25.1 µM [inhibitor, partial curve, poor fit]	–
COc1ccc(NC(=O)C2(C)CCN2Cc2cccc(OC)c2F)cc1OC (stereo not drawn)	inconclusive: 63.1 µM [inhibitor, partial curve, poor fit]	–
